The record followed here is publication PMC7069986.

Test [1] has as its target T1, SRK2D/SnRK2.2-mCherry (Arabidopsis thaliana) (UniProt Q39192).
T1 sequence: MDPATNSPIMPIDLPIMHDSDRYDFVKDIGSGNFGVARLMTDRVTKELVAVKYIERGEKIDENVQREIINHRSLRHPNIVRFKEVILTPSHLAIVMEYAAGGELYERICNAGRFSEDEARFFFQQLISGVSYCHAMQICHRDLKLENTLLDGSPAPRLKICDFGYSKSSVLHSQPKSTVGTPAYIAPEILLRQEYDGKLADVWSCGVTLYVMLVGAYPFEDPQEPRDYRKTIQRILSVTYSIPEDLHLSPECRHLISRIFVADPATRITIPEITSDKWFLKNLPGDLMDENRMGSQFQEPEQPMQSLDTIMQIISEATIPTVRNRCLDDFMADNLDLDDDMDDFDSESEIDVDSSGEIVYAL
Briefly: co-IP; total proteins from transgenic Arabidopsis co-expressing RAF18-GFP and mCherry fusions, untreated or 0.8 M mannitol for 10 min; precipitated with anti-mCherry (Anti-RFP mAb-Magnetic Beads); blots with anti-GFP or anti-mCherry.

The target of test [2] is T2, SRK2G-mCherry (Arabidopsis thaliana) (UniProt P43292).
T2 sequence: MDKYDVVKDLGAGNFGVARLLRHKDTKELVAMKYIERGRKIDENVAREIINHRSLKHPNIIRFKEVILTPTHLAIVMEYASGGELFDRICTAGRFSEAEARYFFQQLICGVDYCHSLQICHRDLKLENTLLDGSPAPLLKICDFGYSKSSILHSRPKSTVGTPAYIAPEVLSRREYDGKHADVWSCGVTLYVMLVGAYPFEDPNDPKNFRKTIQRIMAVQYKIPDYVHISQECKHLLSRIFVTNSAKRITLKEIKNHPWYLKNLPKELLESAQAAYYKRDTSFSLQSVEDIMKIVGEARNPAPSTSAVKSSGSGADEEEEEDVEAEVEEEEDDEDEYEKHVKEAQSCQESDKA
The description is as above.

The target of test [3] is T3, SRK2A-mCherry (Arabidopsis thaliana) (UniProt P43291).
T3 sequence: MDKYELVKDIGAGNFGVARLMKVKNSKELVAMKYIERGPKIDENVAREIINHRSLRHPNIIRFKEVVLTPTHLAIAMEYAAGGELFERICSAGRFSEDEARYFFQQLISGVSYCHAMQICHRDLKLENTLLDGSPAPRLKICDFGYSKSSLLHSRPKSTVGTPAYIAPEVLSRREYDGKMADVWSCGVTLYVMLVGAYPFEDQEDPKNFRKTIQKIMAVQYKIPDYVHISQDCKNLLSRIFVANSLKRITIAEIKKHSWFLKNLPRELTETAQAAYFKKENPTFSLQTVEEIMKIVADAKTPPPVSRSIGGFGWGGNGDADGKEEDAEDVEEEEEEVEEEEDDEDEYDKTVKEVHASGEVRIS
The test is described as above.

The target in test [4] is T4, SRK2A-VenusN (Arabidopsis thaliana) (UniProt P43291).
T4 sequence: T3 sequence
Description: split reporter; BiFC in N. benthamiana leaves; VenusN and SCFP3AC fusions; leaves treated with water or 500 mM mannitol for 5 h; confocal microscopy.

For test [5], the target named is T5, SRK2G-VenusN (Arabidopsis thaliana) (UniProt P43292).
T5 sequence: T2 sequence
The description is as above.

Test [6] deals with T6, SRK2G-cLUC (Arabidopsis thaliana) (UniProt P43292).
T6 sequence: T2 sequence
Description: split reporter; split-luciferase complementation in infiltrated N. benthamiana leaves; nLUC and cLUC fusions transiently expressed; luciferin infiltrated, luminescence imaged.

Test [7] concerns the target T7, SRK2A-cLUC (Arabidopsis thaliana) (UniProt P43291).
T7 sequence: T3 sequence
The description is as above.

Results are given in words; binding and its absence hold for the method and conditions named. In cells and extracts the contact can be indirect. For some of these results: Binding can be weak; no strength is given. For some of these results: Where a sequence is shown, tags or fusion partners need not be part of it.

For RAF18-GFP (Arabidopsis thaliana), the binding entry is on record as “no binding” in test [1], “binds” in test [2] and “binds” in test [3].
For RAF18-SCFP3AC (Arabidopsis thaliana), the binding result in test [4] and in test [5] was “binds” each time.
Turning to RAF18-nLUC (Arabidopsis thaliana), the binding result in test [6] and in test [7] was “binds” each time.
